Measurements: paper PMC5996148
Several values for one entry are separate records, joined by “and”; a condition that tells them apart may be missing. Equal entries are not always repeated. The list shows a part of the results. For some assays here: The source does not settle which construct or isoform was used.

Sequences of proteins named here, by UniProt entry; tags and fusion partners are left off. A change or cut given only in a name is not applied to a line headed by its entry.
UniProt P49796: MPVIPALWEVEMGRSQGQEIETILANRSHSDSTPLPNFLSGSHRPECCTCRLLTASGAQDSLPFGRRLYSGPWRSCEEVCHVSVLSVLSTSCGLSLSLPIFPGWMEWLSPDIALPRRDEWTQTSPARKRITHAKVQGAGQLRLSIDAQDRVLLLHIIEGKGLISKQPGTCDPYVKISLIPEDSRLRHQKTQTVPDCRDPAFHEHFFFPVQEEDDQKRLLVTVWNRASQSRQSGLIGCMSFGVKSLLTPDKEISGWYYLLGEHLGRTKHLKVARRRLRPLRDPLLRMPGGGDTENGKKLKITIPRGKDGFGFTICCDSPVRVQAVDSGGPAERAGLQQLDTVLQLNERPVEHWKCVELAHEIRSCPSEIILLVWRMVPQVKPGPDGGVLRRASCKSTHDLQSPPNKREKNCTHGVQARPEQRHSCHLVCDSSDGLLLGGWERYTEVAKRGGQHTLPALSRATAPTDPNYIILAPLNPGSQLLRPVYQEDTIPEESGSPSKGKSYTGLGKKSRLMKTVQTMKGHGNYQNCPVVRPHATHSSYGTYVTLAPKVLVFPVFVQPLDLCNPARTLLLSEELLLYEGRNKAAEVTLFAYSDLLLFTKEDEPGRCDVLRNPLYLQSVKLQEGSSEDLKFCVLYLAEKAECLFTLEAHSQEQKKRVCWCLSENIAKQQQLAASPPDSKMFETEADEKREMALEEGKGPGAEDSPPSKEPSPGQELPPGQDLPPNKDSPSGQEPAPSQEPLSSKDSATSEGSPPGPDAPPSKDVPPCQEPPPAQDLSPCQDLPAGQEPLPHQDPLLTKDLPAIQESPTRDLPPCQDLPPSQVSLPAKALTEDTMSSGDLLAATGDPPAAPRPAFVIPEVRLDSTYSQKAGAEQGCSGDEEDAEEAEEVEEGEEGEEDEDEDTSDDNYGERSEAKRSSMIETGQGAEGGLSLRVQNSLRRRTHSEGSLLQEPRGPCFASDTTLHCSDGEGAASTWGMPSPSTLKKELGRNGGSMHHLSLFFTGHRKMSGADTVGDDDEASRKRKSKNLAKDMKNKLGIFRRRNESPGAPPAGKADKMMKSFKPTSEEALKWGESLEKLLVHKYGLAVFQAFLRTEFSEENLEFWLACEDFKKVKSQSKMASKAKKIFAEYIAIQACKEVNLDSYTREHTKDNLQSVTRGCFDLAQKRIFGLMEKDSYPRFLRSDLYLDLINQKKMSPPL

Columns and labels:
Test in all cases: protein microarray (ProtoArray v5.0), streptavidin-Alexa Fluor 647
Conditions in all cases: 3'-biotin; 20 mM Tris (pH 7.5), 5 mM MgCl2, 100 mM KCl, 0.1% Tween-20, A/T-rich and random oligonucleotide blockers; temperature not stated; high values mean tight binding
[1] = system: REEP6 (human)
[2] = system: REG3A (human)
[3] = system: RELA (human)
[4] = system: RELL2 (human)
[5] = system: RFC5 (human)
[6] = system: RFPL1 (human)
[7] = system: RFPL3 (human)
[8] = system: RGS10 (human)
[9] = molecular target: RGS3 (UniProt P49796)
[10] = system: RGS5 (human)
[11] = system: RGS6 (human)
[12] = system: RHBDD1 (human)
[13] = system: RHBDL2 (human)
[14] = system: RHCG (human)
[15] = system: RHOA (human)
[16] = system: RHOB (human)
[17] = system: RIC3 (human)
[18] = system: RING finger and WD repeat domain-containing protein 3 (human)
[19] = system: RING finger protein 122 (human)
[20] = system: RIPK3 (human)

GGGAGGCTGAGGCAGG [G4-1 biotinylated (PQS2)]
binding signal [1]: -0.34 z-score | binding signal [2]: -0.276 z-score | binding signal [3]: -0.308 z-score | binding signal [4]: -0.299 z-score | binding signal [5]: -0.324 z-score | binding signal [6]: -0.319 z-score | binding signal [7]: -0.331 z-score | binding signal [8]: -0.352 z-score and -0.34 z-score | binding signal [9]: 7.5 z-score | binding signal [10]: -0.313 z-score | binding signal [11]: -0.266 z-score | binding signal [12]: -0.287 z-score | binding signal [13]: -0.329 z-score | binding signal [14]: -0.343 z-score | binding signal [15]: -0.334 z-score | binding signal [16]: -0.277 z-score | binding signal [17]: -0.337 z-score | binding signal [18]: -0.319 z-score and -0.32 z-score | binding signal [19]: -0.356 z-score | binding signal [20]: -0.259 z-score
